What follows are substances tested on HLA-A*02-positive lung cancer (NSCLC) samples (assay: Relative LC-MS quantitation of HLA-A*02 peptide presentation on tumors vs normal tissues). Conditions: FIG. 1A, 1B legends; A*02.
Set-up: species or system human; key to Peptide Presentation (presentation score): very highly over-presented on tumors compared to a panel of normal tissues (+++); highly over-presented on tumors compared to a panel of normal (healthy) tissues (++); over-presented on tumors compared to a panel of normal tissues (+)
For “13 (FLFDGSANL; listed as Homo sapiens) [compound 13]”, the “peptide was also found on (other cancers, not shown)” value was “prostate cancer, breast cancer, colorectal cancer, hepatic cancer, melanoma, ovarian cancer, esophageal cancer, pancreatic cancer, gastric cancer”.

Same assay, conditions: FIG. 1E legend; A*02
In the case of “4 (FVFSFPVSV; listed as Homo sapiens) [compound 4]”, the “cell lines, normal tissues and cancer tissues where the peptide has been detected” value is reported as 5 pancreatic cell lines, 3 skins, 15 normal tissues (2 esophagi, 7 lungs, 3 spleens, 3 stomachs), 126 cancer tissues.

Same assay, conditions: HLA-A*02 peptides, amendment of Table 9; >5% of measured tumor samples or ratio of geometric means tumor vs normal >3
“98 (VLYPHEPTAV; listed as Homo sapiens) [compound 98]” was tested, and the “Additional Entities (additional tumor types showing over-presentation)” value was “SCLC, BRCA, Esophageal Cancer, Urinary bladder cancer, NHL”.
For “21 (VLSSGLTAA; listed as Homo sapiens) [compound 21]”, the “Additional Entities (additional tumor types showing over-presentation)” value was “CRC, BRCA, Urinary bladder cancer, Uterine Cancer”.
With “18 (ILLTEQINL; listed as Homo sapiens) [compound 18]” the “Additional Entities (additional tumor types showing over-presentation)” value was “SCLC, Melanoma, Gallbladder Cancer, Bile Duct Cancer”.
For “4 (FVFSFPVSV; listed as Homo sapiens) [compound 4]”, the “Additional Entities (additional tumor types showing over-presentation)” value was “SCLC, Esophageal Cancer, Urinary bladder cancer, Gallbladder Cancer, Bile Duct Cancer, NHL”.
In the case of “102 (SLLSELQHA; listed as Homo sapiens) [compound 102]”, the “Additional Entities (additional tumor types showing over-presentation)” value is reported as “SCLC, Melanoma, Uterine Cancer, Gallbladder Cancer, Bile Duct Cancer, NHL”.
With “100: peptide found in BUB1B (gene looked up) (KIVDFSYSV; listed as Homo sapiens) [compound 100]” the “Additional Entities (additional tumor types showing over-presentation)” value was “SCLC, BRCA, Melanoma, Urinary bladder cancer, Uterine Cancer”.
“101 (LLLEILHEI; listed as Homo sapiens) [compound 101]” was tested, and the “Additional Entities (additional tumor types showing over-presentation)” value was “SCLC, CLL, Urinary bladder cancer”.
With “10 (KMAGIGIREA; listed as Homo sapiens) [compound 10]” the “Additional Entities (additional tumor types showing over-presentation)” value was “Urinary bladder cancer”.
With “13 (FLFDGSANL; listed as Homo sapiens) [compound 13]” the “Additional Entities (additional tumor types showing over-presentation)” value was “SCLC, GC, Melanoma, OC, Urinary bladder cancer, Gallbladder Cancer, Bile Duct Cancer”.
“96 (AMGIAPPKV; listed as Homo sapiens) [compound 96]” was tested, and the “Additional Entities (additional tumor types showing over-presentation)” value was “SCLC, BRCA, Melanoma, NHL”.

Same assay, conditions: HLA-A*02 peptides; over-presented on >5% of measured tumour samples, or presented on >5% with ratio of geometric means tumour vs normal >3
With “98 (VLYPHEPTAV; listed as Homo sapiens) [compound 98]” the “Other relevant organs/diseases (additional tumour types on which the peptide was found)” value (from here on “Other relevant organs/diseases”) was “Kidney, Brain, Colon, Rectum, Liver, MCC, Melanoma, Ovary”.
For “124 (NLLDLDYEL; listed as Homo sapiens) [compound 124]”, the “Other relevant organs/diseases” value was “Stomach, Colon, Rectum, Pancreas, Breast, Ovary, Esophagus”.
With “141 (NLIEKSIYL; listed as Homo sapiens) [compound 141]” the “Other relevant organs/diseases” value was “Esophagus”.
With “21 (VLSSGLTAA; listed as Homo sapiens) [compound 21]” the “Other relevant organs/diseases” value was “Liver, Esophagus”.
“148 (ALFGALFLA; listed as Homo sapiens) [compound 148]” was tested, and the “Other relevant organs/diseases” value was “Melanoma, Ovary”.
“157 (KLFGEKTYL; listed as Homo sapiens) [compound 157]” was tested, and the “Other relevant organs/diseases” value was “Esophagus”.
“18 (ILLTEQINL; listed as Homo sapiens) [compound 18]” was tested, and the “Other relevant organs/diseases” value was “Kidney, Stomach, Liver, Pancreas, Prostate, Breast, Ovary, Esophagus”.
“147 (VLFPNLKTV; listed as Homo sapiens) [compound 147]” was tested, and the “Other relevant organs/diseases” value was “Kidney”.
With “4 (FVFSFPVSV; listed as Homo sapiens) [compound 4]” the “Other relevant organs/diseases” value was “Stomach, Pancreas, Breast, Melanoma, Ovary”.
In the case of “121 (RLLDSVSRL; listed as Homo sapiens) [compound 121]”, the “Other relevant organs/diseases” value is reported as “Kidney, Colon, Rectum, Liver, Pancreas, Ovary”.
For “102 (SLLSELQHA; listed as Homo sapiens) [compound 102]”, the “Other relevant organs/diseases” value was “Kidney, Breast, Ovary, Esophagus”.
“150 (GVLENIFGV; listed as Homo sapiens) [compound 150]” was tested, and the “Other relevant organs/diseases” value was “Kidney, Brain, Liver, Ovary, Esophagus”.
“153 (ALYDSVILL; listed as Homo sapiens) [compound 153]” was tested, and the “Other relevant organs/diseases” value was “Stomach, Prostate, Esophagus”.
For “123 (GLTDNIHLV; listed as Homo sapiens) [compound 123]”, the “Other relevant organs/diseases” value was “Kidney, Colon, Rectum, Pancreas, Ovary, Esophagus”.
With “114 (AMSSKFFLV; listed as Homo sapiens) [compound 114]” the “Other relevant organs/diseases” value was “Brain, Stomach, Colon, Rectum, Liver, Pancreas, Prostate, Ovary, Esophagus”.
In the case of “135 (AIDGNNHEV; listed as Homo sapiens) [compound 135]”, the “Other relevant organs/diseases” value is reported as “Brain, Liver, Pancreas”.
“146 (FQYDHEAFL; listed as Homo sapiens) [compound 146]” was tested, and the “Other relevant organs/diseases” value was “Kidney, Stomach, Colon, Rectum, Pancreas, Melanoma, Esophagus”.
With “100: peptide found in BUB1B (gene looked up) (KIVDFSYSV; listed as Homo sapiens) [compound 100]” the “Other relevant organs/diseases” value was “Brain, Colon, Rectum, MCC, Ovary”.
In the case of “101 (LLLEILHEI; listed as Homo sapiens) [compound 101]”, the “Other relevant organs/diseases” value is reported as “Kidney, Liver, Pancreas, Breast, Ovary”.
With “145 (AMTQLLAGV; listed as Homo sapiens) [compound 145]” the “Other relevant organs/diseases” value was “Brain, Colon, Rectum, Breast, Esophagus”.
In the case of “104 (SLVAVELEKV; listed as Homo sapiens) [compound 104]”, the “Other relevant organs/diseases” value is reported as “Brain, Liver, Pancreas, MCC, Ovary, Esophagus”.
“10 (KMAGIGIREA; listed as Homo sapiens) [compound 10]” was tested, and the “Other relevant organs/diseases” value was “Prostate, Ovary”.
In the case of “16 (LIFDLGGGTFDV; listed as Homo sapiens) [compound 16]”, the “Other relevant organs/diseases” value is reported as “Brain, Liver, Prostate, Breast, Melanoma, Ovary”.
In the case of “13 (FLFDGSANL; listed as Homo sapiens) [compound 13]”, the “Other relevant organs/diseases” value is reported as “Colon, Rectum, Pancreas, Breast, Esophagus”.
For “111 (SLYKGLLSV; listed as Homo sapiens) [compound 111]”, the “Other relevant organs/diseases” value was “Kidney, Brain, Colon, Rectum, Liver, Ovary”.
“136 (ALVDHTPYL; listed as Homo sapiens) [compound 136]” was tested, and the “Other relevant organs/diseases” value was “Kidney, Liver, Pancreas”.
For “96 (AMGIAPPKV; listed as Homo sapiens) [compound 96]”, the “Other relevant organs/diseases” value was “Colon, Rectum, Liver, Pancreas, Leukocytes”.

Same assay, conditions: HLA-A*02 peptides; tumors compared to a panel of normal tissues
With “ATP-001 (SLHFLILYV; listed as Homo sapiens)” the “Peptide Presentation (presentation score)” value (“Peptide Presentation” for short) was “+”.
In the case of “FZD-001 (VLAPLFVYL; listed as Homo sapiens)”, the “Peptide Presentation” value is reported as “++”.
In the case of “ILIDWLVQV (listed as Homo sapiens) [SEQ ID No. 117]”, the “Peptide Presentation” value is reported as “++”.
In the case of “WNT5A-001 (AMSSKFFLV; listed as Homo sapiens)”, the “Peptide Presentation” value is reported as “++”.
With “KIFDEILVNA (listed as Homo sapiens) [SEQ ID No. 144]” the “Peptide Presentation” value was “+”.
For “PCNXL3-001 (GVLENIFGV; listed as Homo sapiens)”, the “Peptide Presentation” value was “+”.
For “PRKDC-001 (LMTKEISSV; listed as Homo sapiens)”, the “Peptide Presentation” value was “+”.
With “TGFBI-001 (ALFVRLLALA; listed as Homo sapiens)” the “Peptide Presentation” value was “++”.
“COL12A1-002 (FLVDGSWSV; listed as Homo sapiens)” was tested, and the “Peptide Presentation” value was “++”.
For “UBE2S-001 (ALNEEAGRLLL; listed as Homo sapiens)”, the “Peptide Presentation” value was “++”.
With “COL6A3-010 (KLLPYIVGV; listed as Homo sapiens)” the “Peptide Presentation” value was “+++”.
“PLT-001 (ALFGALFLA; listed as Homo sapiens)” was tested, and the “Peptide Presentation” value was “+”.
In the case of “KIQEMQHFL (listed as Homo sapiens) [SEQ ID No. 116]”, the “Peptide Presentation” value is reported as “+++”.
In the case of “MXRA5-001 (TLSSIKVEV; listed as Homo sapiens)”, the “Peptide Presentation” value is reported as “+++”.
In the case of “ERO-001 (LLLEILHEI; listed as Homo sapiens)”, the “Peptide Presentation” value is reported as “+”.
In the case of “SMYD3-001 (SLIEDLILL; listed as Homo sapiens)”, the “Peptide Presentation” value is reported as “++”.
With “RLDDLKMTV (listed as Homo sapiens) [SEQ ID No. 125]” the “Peptide Presentation” value was “++”.
“AIVDKVPSV (listed as Homo sapiens) [SEQ ID No. 143]” was tested, and the “Peptide Presentation” value was “+”.
In the case of “KILEDVVGV (listed as Homo sapiens) [SEQ ID No. 130]”, the “Peptide Presentation” value is reported as “+”.
For “VLLPVEVATHYL (listed as Homo sapiens) [SEQ ID No. 142]”, the “Peptide Presentation” value was “+”.
With “RAD54B-001 (SLYKGLLSV; listed as Homo sapiens)” the “Peptide Presentation” value was “+++”.
“CDK4-001 (TLWYRAPEV; listed as Homo sapiens)” was tested, and the “Peptide Presentation” value was “+”.
“DUSP4-001 (FVFSFPVSV; listed as Homo sapiens)” was tested, and the “Peptide Presentation” value was “+”.
“TACC3-001 (KLVEFDFLGA; listed as Homo sapiens)” was tested, and the “Peptide Presentation” value was “+”.
In the case of “ALVDHTPYL (listed as Homo sapiens) [SEQ ID No. 136]”, the “Peptide Presentation” value is reported as “+”.
For “MAGEF1-001 (ILFPDIIARA; listed as Homo sapiens)”, the “Peptide Presentation” value was “+”.
In the case of “DONSON-001 (VLYPHEPTAV; listed as Homo sapiens)”, the “Peptide Presentation” value is reported as “++”.
For “SF3B3-001 (ELDRTPPEV; listed as Homo sapiens)”, the “Peptide Presentation” value was “+”.
With “GBP5-001 (SLLSELQHA; listed as Homo sapiens)” the “Peptide Presentation” value was “++”.
For “IVDDITYNV (listed as Homo sapiens) [SEQ ID No. 119]”, the “Peptide Presentation” value was “++”.
In the case of “ILLTEQINL (listed as Homo sapiens) [SEQ ID No. 18]”, the “Peptide Presentation” value is reported as “+”.
In the case of “KRT-006 (TLLQEQGTKTV; listed as Homo sapiens)”, the “Peptide Presentation” value is reported as “+”.
“CSNK2A2-001 (VLSSGLTAA; listed as Homo sapiens)” was tested, and the “Peptide Presentation” value was “+”.
For “TLFPVRLLV (listed as Homo sapiens) [SEQ ID No. 97]”, the “Peptide Presentation” value was “+”.
